Results taken from publication PMC6647326.
No constants are given. Whether binding was seen depends on the method and setting. Binding seen in cells or lysates may run through a third protein. Some entries that bind do so weakly or less than the wild type.

Amino acid sequences for entries named in this document (tags omitted). A change or cut given only in a name is not applied to a line headed by its entry.
UniProt Q920B9: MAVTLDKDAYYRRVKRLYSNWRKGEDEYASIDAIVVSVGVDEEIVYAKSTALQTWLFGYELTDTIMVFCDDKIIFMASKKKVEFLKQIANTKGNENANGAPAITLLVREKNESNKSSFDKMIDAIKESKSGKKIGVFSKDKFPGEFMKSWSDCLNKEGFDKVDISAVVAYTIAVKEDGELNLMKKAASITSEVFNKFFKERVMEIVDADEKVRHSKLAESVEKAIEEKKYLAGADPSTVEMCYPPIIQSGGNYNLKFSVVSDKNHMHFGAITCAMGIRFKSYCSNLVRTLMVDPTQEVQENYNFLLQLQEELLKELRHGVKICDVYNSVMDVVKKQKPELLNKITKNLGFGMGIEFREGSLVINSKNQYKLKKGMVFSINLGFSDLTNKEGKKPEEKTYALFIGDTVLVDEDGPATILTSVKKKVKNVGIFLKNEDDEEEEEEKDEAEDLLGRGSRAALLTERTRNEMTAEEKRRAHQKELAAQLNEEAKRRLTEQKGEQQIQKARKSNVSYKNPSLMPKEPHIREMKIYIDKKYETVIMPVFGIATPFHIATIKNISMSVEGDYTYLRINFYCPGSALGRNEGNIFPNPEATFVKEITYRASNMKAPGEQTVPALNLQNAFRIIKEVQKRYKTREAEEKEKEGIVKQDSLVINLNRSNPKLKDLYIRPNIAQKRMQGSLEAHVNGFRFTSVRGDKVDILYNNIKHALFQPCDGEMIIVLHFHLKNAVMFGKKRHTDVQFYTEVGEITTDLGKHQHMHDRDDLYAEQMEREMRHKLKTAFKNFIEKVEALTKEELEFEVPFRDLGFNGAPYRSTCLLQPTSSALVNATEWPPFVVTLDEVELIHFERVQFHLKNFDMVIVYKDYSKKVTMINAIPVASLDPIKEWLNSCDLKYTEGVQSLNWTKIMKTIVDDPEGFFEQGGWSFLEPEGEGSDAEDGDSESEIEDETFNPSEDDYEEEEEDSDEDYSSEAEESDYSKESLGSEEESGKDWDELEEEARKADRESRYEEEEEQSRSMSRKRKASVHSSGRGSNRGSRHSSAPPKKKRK

Molecular target: T1, endogenous TRIM33 (mouse (endogenous in immortalized macrophages)) (UniProt Q99PP7)
T1 sequence: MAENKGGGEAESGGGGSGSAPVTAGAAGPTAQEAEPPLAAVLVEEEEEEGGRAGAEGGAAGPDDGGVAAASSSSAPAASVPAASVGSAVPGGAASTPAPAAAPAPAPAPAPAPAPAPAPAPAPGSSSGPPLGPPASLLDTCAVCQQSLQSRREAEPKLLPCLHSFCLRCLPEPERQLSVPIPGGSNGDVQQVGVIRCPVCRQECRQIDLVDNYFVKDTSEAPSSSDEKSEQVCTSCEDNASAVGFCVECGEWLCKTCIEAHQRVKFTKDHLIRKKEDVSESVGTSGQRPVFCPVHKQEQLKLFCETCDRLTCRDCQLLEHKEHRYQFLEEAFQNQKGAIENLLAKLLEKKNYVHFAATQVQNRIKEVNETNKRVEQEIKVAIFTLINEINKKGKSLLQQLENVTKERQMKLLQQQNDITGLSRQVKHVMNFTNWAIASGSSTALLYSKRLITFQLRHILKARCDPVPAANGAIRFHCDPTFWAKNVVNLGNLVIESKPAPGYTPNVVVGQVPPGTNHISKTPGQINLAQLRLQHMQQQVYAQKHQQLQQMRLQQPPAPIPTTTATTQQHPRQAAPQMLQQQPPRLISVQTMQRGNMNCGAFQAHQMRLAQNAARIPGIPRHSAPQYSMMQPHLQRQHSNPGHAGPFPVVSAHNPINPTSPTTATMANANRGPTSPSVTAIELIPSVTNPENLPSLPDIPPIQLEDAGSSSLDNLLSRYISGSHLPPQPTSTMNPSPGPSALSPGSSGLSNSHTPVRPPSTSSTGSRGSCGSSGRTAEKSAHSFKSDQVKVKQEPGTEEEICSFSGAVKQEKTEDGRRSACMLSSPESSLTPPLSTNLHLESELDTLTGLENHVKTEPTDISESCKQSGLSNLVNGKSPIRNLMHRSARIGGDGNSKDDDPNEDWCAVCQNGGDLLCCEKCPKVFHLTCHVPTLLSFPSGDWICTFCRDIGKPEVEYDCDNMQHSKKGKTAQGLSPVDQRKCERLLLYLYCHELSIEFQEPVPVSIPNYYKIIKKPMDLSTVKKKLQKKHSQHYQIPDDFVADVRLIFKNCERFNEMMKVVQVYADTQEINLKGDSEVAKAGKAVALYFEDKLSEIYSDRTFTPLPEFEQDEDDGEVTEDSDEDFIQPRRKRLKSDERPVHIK
Assay: co-IP; immunoprecipitation of endogenous proteins from nuclear extracts of immortalized macrophages, followed by immunoblotting

## FACT complex (heterodimer of SPT16 and SSRP1) (from UniProt Q920B9 1-1047; Q08943 1-708)
  binding: binds
